One test has as its target PKR2-ΔC52 mutant-rLuc (UniProt Q8NFJ6). In words: FRET or BRET; BRET in CHO cells stably expressing rGFP-β-arrestin-2, transiently transfected with a constant amount of receptor-rLuc and increasing amounts of MRAP2 vector; 5 μM coelenterazine in PBS; without or with PK2. Background: In BRET a luciferase serves as donor, and the signal depends on an acceptor being close.
Test [1] deals with T1, CT-MRAP2 (C-terminal domain of MRAP2, residues 78-204) (human) (UniProt Q96G30).
T1 sequence: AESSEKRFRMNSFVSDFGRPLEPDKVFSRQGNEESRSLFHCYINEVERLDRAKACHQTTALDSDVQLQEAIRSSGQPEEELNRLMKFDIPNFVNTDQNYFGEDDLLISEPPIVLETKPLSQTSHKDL
In words: co-IP; total proteins from E. coli co-expressing CT-MRAP2 FLAG and His-tagged β-arrestin-2 or p44; FLAG bind resin, native conditions; blots with anti-FLAG and anti-His.

By UniProt entry, the sequences of proteins in these tests, tags left out. Where a name states a change or a piece, a line headed by the entry shows the natural chain unless it says otherwise.
UniProt Q8NFJ6: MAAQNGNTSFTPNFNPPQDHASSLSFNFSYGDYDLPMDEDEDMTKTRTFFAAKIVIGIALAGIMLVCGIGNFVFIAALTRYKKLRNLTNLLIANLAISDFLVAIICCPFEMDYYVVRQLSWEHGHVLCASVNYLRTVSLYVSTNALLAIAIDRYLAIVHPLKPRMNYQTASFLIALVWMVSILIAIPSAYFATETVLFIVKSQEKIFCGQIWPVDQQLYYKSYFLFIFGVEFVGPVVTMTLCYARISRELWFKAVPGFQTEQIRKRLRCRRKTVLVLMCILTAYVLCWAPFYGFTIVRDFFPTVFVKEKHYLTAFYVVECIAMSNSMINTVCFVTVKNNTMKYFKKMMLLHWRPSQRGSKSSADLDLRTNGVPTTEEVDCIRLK
UniProt P32121: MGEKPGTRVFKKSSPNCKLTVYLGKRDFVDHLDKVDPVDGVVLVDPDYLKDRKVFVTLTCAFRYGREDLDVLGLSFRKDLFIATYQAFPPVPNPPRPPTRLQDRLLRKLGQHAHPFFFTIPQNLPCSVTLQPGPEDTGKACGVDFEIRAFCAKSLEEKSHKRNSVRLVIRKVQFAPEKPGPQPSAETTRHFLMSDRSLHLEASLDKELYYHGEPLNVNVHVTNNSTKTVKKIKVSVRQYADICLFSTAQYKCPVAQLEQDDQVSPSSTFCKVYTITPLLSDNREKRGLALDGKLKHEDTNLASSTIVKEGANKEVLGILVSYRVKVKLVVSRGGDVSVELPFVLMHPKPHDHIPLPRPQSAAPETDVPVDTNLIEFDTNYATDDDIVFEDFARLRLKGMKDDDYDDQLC

Test [2] concerns the target T2, hMRAP2-Glutathione S-Transferase (hMRAP2-GST) (human) (UniProt Q96G30).
T2 sequence: T1 sequence
In words: pull-down; GST fusion protein held on glutathione-Sepharose beads, buffer A (PBS, 1% Nonidet P 40, 1 mM EDTA), incubated with purified His-tagged protein from E. coli; eluted with GSH, Western blot; both purified. (In general: A western blot detects proteins with antibodies after separation by electrophoresis.)

The target of another test is PKR2-ΔC52 mutant (UniProt Q8NFJ6). In words: cross-linking; CHO cells co-expressing MRAP2 and WT PKR2 or PKR2-ΔC52 incubated with dithiobis(succinimidyl propionate) (2 mM); membrane proteins on SDS-PAGE, blot with anti-PKR2.

Results are given in words; binding and its absence hold for the method and conditions named. Binding calls can cover weak binding; strength is not graded here. For some of these results: Tags and fused reporters may be left off the sequences shown. For some of these results: Binding seen in cells or lysates may run through a third protein.

Regarding “fluorescent β-arrestin-2 (GFP-β-arrestin-2) (from UniProt P32121 1-409)”, the binding entry with PKR2-ΔC52 mutant-rLuc was “binds”.

“p44 with His TAG (splicing variant of β-arrestin-2 with deletion of C terminal tail)”: the binding result in test [1] and in test [2] was “binds” each time.

B1: Melanocortin receptor accessory protein 2 (MRAP2) (protein, UniProt Q96G30 1-205)
chain: MSAQRLISNRTSQQSASNSDYTWEYEYYEIGPVSFEGLKAHKYSIVIGFWVGLAVFVIFMFFVLTLLTKTGAPHQDNAESSEKRFRMNSFVSDFGRPLEPDKVFSRQGNEESRSLFHCYINEVERLDRAKACHQTTALDSDVQLQEAIRSSGQPEEELNRLMKFDIPNFVNTDQNYFGEDDLLISEPPIVLETKPLSQTSHKDLD
On to B1, for which the binding result with PKR2-ΔC52 mutant is on record as “binds”.

The values are drawn from publication PMC10887741.
